Common to all, as to assay: expression cloning; AP-fusion bait (20-50 nM) on COS7 cells transfected with human cDNA, AP staining
Assay [1] deals with T1, Nogo Receptor (human cDNA clone expressed on COS7 cells) (human) (UniProt Q9BZR6).
T1 sequence (looked up): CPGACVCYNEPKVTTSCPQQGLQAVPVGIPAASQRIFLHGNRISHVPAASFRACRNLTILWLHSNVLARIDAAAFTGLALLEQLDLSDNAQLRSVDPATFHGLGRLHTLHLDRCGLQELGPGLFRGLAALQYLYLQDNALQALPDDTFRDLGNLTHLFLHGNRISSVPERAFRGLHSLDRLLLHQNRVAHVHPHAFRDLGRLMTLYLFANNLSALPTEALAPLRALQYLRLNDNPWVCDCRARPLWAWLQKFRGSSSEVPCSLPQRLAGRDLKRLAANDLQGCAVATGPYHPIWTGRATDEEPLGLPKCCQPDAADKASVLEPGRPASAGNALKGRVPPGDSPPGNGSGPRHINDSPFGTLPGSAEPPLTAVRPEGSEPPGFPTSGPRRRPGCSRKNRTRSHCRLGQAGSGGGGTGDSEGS

Chains of the proteins cited; added tags and fusions are not shown. Lines headed by an entry give the natural chain unless they say otherwise; changes in a name come on top. Residues count along the entry.
UniProt Q8N423: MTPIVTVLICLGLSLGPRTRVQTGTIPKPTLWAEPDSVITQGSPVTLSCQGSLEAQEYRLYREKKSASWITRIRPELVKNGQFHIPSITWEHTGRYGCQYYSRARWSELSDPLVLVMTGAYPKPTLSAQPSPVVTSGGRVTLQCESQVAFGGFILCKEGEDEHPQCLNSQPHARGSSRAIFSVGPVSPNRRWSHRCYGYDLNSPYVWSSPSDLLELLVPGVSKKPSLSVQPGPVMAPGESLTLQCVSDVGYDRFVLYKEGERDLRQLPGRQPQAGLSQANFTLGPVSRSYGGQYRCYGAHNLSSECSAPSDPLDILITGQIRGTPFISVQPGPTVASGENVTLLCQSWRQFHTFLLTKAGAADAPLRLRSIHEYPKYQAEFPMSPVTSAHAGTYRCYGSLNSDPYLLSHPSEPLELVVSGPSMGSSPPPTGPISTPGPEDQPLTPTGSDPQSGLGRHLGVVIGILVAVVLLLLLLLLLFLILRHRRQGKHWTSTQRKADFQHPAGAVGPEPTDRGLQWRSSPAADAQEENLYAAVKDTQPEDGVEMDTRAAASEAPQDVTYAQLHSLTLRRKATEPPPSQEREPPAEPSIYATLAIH
UniProt Q9NQC3, residues 1055-1120: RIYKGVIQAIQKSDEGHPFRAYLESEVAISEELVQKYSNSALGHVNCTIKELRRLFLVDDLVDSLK

In assay [2] the target is Homo sapiens leukocyte immunoglobulin-like receptor, subfamily B (with TM and ITIM domains), member 2 (LILRB2) (human) (UniProt Q8N423).
The target in assay [3] is T2, Homo sapiens hypothetical protein from clone 643 (LOC57228); alternative ORF homologous to SMAG (human) (UniProt Q0VAQ4).
T2 sequence (looked up): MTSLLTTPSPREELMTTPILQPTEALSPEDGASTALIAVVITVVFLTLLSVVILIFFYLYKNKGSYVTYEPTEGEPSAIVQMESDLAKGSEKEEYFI

Assay [4] deals with T1, Nogo Receptor (human cDNA clone expressed on COS7 cells) (human). The source holds these as a separate data set.

Where two headings read alike, the source gives them in different places. No constants are given. Whether binding was seen depends on the method and setting. Some results given as binding are weak or reduced against the parent protein; the word gives no strength. For some of these results: Tags and fused reporters may be left off the sequences shown.

As for “AP-Nogo66 (Alkaline Phosphatase fused to human Nogo66) (from UniProt Q9NQC3 1055-1120) (ligand)”, the binding entry in assay [1] and in assay [2] was “binds” throughout.

B1: MAG-AP (human MAG fused to Alkaline Phosphatase) (ligand, UniProt P20916 20-516, looked up, not shown: large carriers)
chain: GHWGAWMPSSISAFEGTCVSIPCRFDFPDELRPAVVHGVWYFNSPYPKNYPPVVFKSRTQVVHESFQGRSRLLGDLGLRNCTLLLSNVSPELGGKYYFRGDLGGYNQYTFSEHSVLDIVNTPNIVVPPEVVAGTEVEVSCMVPDNCPELRPELSWLGHEGLGEPAVLGRLREDEGTWVQVSLLHFVPTREANGHRLGCQASFPNTTLQFEGYASMDVKYPPVIVEMNSSVEAIEGSHVSLLCGADSNPPPLLTWMRDGTVLREAVAESLLLELEEVTPAEDGVYACLAENAYGQDNRTVGLSVMYAPWKPTVNGTMVAVEGETVSILCSTQSNPDPILTIFKEKQILSTVIYESELQLELPAVSPEDDGEYWCVAENQYGQRATAFNLSVEFAPVLLLESHCAAARDTVQCLCVVKSNPEPSVAFELPSRNVTVNESEREFVYSERSGLVLTSILTLRGQAQAPPRVICTARNLYGAKSLELPFQGAHRLMWAKIGP
In the case of B1, the binding entry in assay [3] and in assay [4] was “binds” throughout.

The values above are taken from patent WO2009140361A1.
